# Measurements as given in PubChem BioAssay AID2662 (National Center for Advancing Translational Sciences (NCATS), 2010).
# Protein sequences, listed by entry. Tags and fused reporters are not part of them.
# UniProt Q03164, whole entry, looked up: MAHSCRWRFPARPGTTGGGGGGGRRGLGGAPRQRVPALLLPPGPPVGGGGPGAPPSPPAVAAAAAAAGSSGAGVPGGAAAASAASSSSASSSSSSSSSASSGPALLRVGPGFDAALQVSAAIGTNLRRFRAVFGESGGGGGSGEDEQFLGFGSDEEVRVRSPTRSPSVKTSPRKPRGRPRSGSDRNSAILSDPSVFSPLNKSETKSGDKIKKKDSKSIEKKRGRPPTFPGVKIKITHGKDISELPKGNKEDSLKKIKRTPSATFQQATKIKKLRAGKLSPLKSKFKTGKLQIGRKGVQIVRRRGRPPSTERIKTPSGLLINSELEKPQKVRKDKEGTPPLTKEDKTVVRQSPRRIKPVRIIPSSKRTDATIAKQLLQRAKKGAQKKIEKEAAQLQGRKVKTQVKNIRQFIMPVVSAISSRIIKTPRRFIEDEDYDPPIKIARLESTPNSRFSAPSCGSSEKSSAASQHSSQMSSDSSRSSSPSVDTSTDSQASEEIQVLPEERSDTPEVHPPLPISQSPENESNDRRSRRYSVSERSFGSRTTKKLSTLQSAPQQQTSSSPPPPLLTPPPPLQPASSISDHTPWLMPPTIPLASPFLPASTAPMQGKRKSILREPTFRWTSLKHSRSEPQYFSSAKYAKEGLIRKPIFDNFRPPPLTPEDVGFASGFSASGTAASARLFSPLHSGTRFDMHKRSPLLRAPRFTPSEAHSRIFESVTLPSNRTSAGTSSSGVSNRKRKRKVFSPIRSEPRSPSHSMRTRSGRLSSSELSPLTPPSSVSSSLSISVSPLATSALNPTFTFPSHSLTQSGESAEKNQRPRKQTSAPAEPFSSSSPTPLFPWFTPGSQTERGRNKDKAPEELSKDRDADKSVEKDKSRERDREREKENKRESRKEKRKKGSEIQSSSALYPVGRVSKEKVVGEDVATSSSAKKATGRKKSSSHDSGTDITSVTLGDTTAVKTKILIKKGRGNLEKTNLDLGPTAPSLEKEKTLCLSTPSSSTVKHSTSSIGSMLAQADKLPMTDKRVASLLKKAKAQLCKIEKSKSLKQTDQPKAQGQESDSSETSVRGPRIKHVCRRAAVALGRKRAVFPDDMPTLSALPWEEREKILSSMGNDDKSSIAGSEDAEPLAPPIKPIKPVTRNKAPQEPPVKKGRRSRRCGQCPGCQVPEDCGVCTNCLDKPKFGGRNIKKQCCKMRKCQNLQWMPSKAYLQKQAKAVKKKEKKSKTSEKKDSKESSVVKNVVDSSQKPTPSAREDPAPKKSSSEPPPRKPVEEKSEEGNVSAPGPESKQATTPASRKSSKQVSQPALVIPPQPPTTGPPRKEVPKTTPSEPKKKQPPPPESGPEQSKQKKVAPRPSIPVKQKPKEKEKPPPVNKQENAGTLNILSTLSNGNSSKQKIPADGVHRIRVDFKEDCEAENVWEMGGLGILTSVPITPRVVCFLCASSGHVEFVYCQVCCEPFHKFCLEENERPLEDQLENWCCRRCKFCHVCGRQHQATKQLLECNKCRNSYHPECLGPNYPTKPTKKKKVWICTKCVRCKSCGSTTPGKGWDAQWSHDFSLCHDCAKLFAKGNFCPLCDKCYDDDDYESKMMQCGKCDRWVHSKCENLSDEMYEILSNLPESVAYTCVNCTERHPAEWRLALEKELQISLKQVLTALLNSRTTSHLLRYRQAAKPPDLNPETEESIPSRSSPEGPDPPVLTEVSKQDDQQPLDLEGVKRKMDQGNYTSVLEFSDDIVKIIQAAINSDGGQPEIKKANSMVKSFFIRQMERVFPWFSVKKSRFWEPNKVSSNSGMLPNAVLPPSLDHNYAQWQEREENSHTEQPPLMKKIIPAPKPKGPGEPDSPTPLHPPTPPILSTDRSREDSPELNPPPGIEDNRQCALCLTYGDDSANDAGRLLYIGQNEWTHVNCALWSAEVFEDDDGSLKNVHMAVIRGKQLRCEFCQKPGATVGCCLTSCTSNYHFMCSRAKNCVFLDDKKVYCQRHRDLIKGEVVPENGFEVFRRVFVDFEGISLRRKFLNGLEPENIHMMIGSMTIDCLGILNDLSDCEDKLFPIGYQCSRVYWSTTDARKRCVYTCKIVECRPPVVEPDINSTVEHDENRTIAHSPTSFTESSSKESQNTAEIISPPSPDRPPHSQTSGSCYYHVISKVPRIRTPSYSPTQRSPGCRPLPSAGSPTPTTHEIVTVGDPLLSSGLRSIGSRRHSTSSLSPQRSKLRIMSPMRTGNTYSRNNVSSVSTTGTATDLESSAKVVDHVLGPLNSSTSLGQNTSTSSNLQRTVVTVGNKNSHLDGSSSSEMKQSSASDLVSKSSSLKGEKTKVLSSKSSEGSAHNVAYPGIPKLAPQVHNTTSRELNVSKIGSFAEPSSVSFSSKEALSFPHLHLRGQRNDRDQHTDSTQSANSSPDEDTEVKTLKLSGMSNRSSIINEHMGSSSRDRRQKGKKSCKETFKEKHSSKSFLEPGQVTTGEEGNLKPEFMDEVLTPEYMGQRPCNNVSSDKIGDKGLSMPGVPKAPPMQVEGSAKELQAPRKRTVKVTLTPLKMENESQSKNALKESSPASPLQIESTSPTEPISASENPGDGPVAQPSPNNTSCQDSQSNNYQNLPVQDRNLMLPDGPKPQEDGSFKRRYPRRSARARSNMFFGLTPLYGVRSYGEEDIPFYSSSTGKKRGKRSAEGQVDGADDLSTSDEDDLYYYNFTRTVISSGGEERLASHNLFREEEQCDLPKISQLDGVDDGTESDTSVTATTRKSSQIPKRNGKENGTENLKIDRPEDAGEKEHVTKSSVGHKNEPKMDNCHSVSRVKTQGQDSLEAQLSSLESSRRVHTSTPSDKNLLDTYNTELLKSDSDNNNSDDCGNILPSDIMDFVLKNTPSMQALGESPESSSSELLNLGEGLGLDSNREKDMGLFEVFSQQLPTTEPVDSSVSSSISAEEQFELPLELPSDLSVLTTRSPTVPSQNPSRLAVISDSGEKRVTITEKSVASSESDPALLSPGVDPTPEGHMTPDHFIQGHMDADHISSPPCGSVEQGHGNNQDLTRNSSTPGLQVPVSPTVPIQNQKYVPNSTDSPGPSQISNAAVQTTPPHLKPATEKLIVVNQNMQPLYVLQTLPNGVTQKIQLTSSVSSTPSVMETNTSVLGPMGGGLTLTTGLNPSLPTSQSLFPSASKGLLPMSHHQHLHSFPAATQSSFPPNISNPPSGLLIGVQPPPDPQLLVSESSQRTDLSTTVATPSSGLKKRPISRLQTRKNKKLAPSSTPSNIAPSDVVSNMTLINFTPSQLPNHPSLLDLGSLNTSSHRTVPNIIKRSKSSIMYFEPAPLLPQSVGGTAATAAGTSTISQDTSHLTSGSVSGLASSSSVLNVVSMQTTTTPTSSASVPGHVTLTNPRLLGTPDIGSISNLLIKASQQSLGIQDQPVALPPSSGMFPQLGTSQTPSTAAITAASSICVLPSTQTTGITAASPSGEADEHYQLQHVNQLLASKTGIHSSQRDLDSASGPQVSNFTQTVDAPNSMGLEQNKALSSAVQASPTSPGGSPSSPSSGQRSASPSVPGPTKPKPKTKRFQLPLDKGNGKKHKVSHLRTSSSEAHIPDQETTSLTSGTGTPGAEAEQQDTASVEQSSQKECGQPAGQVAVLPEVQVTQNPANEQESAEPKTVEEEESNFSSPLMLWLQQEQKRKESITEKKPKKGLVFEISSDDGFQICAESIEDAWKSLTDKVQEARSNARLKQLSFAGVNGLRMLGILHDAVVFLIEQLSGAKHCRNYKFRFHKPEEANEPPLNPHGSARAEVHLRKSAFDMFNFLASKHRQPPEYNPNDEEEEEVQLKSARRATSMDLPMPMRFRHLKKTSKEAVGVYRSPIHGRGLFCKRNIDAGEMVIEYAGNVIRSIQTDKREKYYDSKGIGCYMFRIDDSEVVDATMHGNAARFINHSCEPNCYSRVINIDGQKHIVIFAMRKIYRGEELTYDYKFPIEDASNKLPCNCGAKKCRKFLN
# In all, about 290,000 compounds went through this assay and about 110 (0.038%) were called active. Inconclusive results, whose numbers are uncertain, are shown with a selection of clear calls. Calls come from the whole dose curve; as a rule, active = well fitted inhibition curve with a large enough effect in the polarisation, with a control signal flat (not every such curve was filed as active); inconclusive = small, poorly fitted or top-dose-only effect, or effect the other way, or a change in a side signal; inactive = no such curve, though single readings can be large or run the other way; the % refers to the polarisation. A potency beside an inconclusive call is a rough fit, not a confirmed value. “Side channel” marks fits to a control or component signal instead of the main read-out.
# Biological target: Histone-lysine N-methyltransferase 2A (Homo sapiens) (UniProt Q03164)
# Assay: qHTS Fluorescence Polarization Assay for Inhibitors of MLL CXXC domain - DNA interaction
# Conditions: MLL-CXXC / FITC-HOXA9 DNA fluorescence polarization; series mostly up to 115 µM
# Method in brief: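 Fluorescence polarization: 7 uM MLL-CXXC (stock) preincubated 5 min with compounds, then 50 nM fluorescein-HOX-A9 DNA (stock) added; 30 min ambient. Buffer 50 mM Tris-HCl pH 7.5, 50 mM NaCl, 1 mM DTT, 0.05% BSA.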
# Potency is the fitted concentration of half-maximal effect.
row,SMILES,Potency
1,FC(F)(F)c1cccc(OCCN2CCN(Cc3ccccc3)CC2)c1,"inconclusive: 10 µM [inhibitor, single point]"
2,O=C(COC(=O)c1ccc(NS(=O)(=O)c2ccc3c(c2)OCCO3)cc1)NC1CCS(=O)(=O)C1 (centres undefined),"inconclusive: 8.91 µM [inhibitor, single point]"
3,O=C(Cc1ccccc1)NN1C(=O)/C(=C/c2ccc(C(=O)O)cc2)SC1=S,"inconclusive: 44.7 µM [inhibitor, partial curve]"
4,CC(=O)C1=C(c2cccc([N+](=O)[O-])c2)N(C(C)=O)n2c(C)nnc2S1,inactive
5,COc1ccc2cc(S(=O)(=O)Nc3ccccn3)ccc2c1,inactive
6,CC(C)COP(=O)(c1ccc(N(C)C)cc1)C(O)c1ccc(N(C)C)cc1 (centres undefined),inactive
7,Cn1cccc1/C=C1\SC(=S)N(NC(=O)c2cccc(Cl)c2)C1=O,"inconclusive: 50.1 µM [fluorescent, side channel, single point]"
8,CC(C)CC(=O)NCCCCc1ccccc1,"inconclusive: 1.12 µM [fluorescent, side channel, partial curve, poor fit]"
9,CC(C)(C)C(=O)OCc1cn(-c2ccc(Cl)cc2)nn1,"inconclusive: 8.91 µM [inhibitor, single point]"
10,COc1ccc(CCn2c(=N)c(C(=O)NC3CCCC3)cc3c(=O)n4cccc(C)c4nc32)cc1,inactive
11,Nc1c(-c2ccccc2)c(CN2CCOCC2)nn1-c1ccc(C(=O)O)cc1,"inconclusive: 31.6 µM [fluorescent, partial curve]"
12,NC(=O)Cn1cc(/C=N\NS(=O)(=O)c2cccc([N+](=O)[O-])c2)c2ccccc21,"inconclusive: 14.1 µM [quencher, side channel, single point]"
13,Cc1cccc(NS(=O)(=O)c2cccc(C(=O)N3CCN(c4ccccn4)CC3)c2)c1,"inconclusive: 14.1 µM [fluorescent, side channel, single point]"
14,O=S1(=O)C=C(Sc2nc3cc(Cl)ccc3o2)c2ccccc21,inactive
15,COC(=O)c1ccc(C(=O)Nc2ccc3c(c2)C(=O)NC3=O)cc1,"inconclusive: 39.8 µM [quencher, side channel, single point]"
16,CC1=C(C#N)c2nc(N)c(C#N)c(C)c2/C1=C\c1ccc(-c2ccccc2C(=O)O)o1,"inconclusive: 35.5 µM [quencher, single point]"
17,Cn1cnnc1SCC(=O)Nc1ccc(N2CCOCC2)cc1,"inconclusive: 10 µM [fluorescent, side channel, full curve]"
18,Cc1c(C)c2c(OCC(=O)NCC(=O)NCC(=O)O)cc3c(c2oc1=O)CCC(C)(C)O3,"inconclusive: 12.6 µM [inhibitor, full curve]"
19,CCOC(=O)/C(C(C)=O)=C1\OC(=O)c2ccccc21,"inconclusive: 70.8 µM [fluorescent, side channel, single point]"
20,O=C(C1=C[C@@H](c2coc3ccccc3c2=O)C[C@@H](OCCCCO)O1)N1CCOCC1,"inconclusive: 89.1 µM [inhibitor, single point]"
21,COc1ccc(-c2csc3ncnc(N4CCN(CCO)CC4)c23)cc1,"inconclusive: 11.2 µM [inhibitor, single point]"
22,O=C(N/N=C/c1ccc(O)cc1)NC12CC3CC(CC(C3)C1)C2,inactive
23,CC(C)c1ccc(CN2CCC(Oc3ccc(C(=O)N4CCCC4)cc3)CC2)cc1,"inconclusive: 15.8 µM [quencher, single point]"

# Single values from the list.
# Potency, O=S1(=O)C=C(Sc2nc3cc(Cl)ccc3o2)c2ccccc21 is entered as inactive
# Potency, NC(=O)Cn1cc(/C=N\NS(=O)(=O)c2cccc([N+](=O)[O-])c2)c2ccccc21 is entered as inconclusive: 14.1 µM [quencher, side channel, single point]

# Molecules shown so far that have a Cl atom, in the order listed:
row,SMILES,Potency
7,Cn1cccc1/C=C1\SC(=S)N(NC(=O)c2cccc(Cl)c2)C1=O,"inconclusive: 50.1 µM [fluorescent, side channel, single point]"
9,CC(C)(C)C(=O)OCc1cn(-c2ccc(Cl)cc2)nn1,"inconclusive: 8.91 µM [inhibitor, single point]"
14,O=S1(=O)C=C(Sc2nc3cc(Cl)ccc3o2)c2ccccc21,inactive

# Later entries:

row,SMILES,Potency
1,Cc1ccc2[nH]c3nc(NN)nnc3c2c1,inactive
2,COc1cc([N+](=O)[O-])ccc1N/C=C/C(=O)c1cccs1,"inconclusive: 70.8 µM [fluorescent, side channel, single point]"
3,O=C(Nc1ccc(C(F)(F)F)cc1)c1ccc2ncsc2c1,"inconclusive: 17.8 µM [inhibitor, partial curve]"
4,Cc1ccc(-c2csc(N3CCN(c4cc5c(cc4Cl)nc(-c4ccncc4)n5CCOCCO)CC3)n2)cc1,inactive
5,CCc1nccn1CCC(=O)N1CCCC(N2CCN(c3ccccc3C)CC2)C1 (centres undefined),"inconclusive: 22.4 µM [fluorescent, side channel, partial curve]"
6,CCN(CC)Cc1cc2[nH]c3c4ccc(Cl)cc4ncc3c2cc1OC,"inconclusive: 39.8 µM [quencher, partial curve]"
7,COc1cc(/C=C/c2nc3ccccc3c(=O)[nH]2)cc(Br)c1O,"inconclusive: 70.8 µM [fluorescent, side channel, single point]"
8,Cc1[nH]n(-c2ccccc2)c(=O)c1/C=N/NC(=O)c1cccc(F)c1,"inconclusive: 15.8 µM [inhibitor, single point]"
9,COC(=O)Cc1ccc(NC(=O)c2ccccc2Br)cc1,"inconclusive: 70.8 µM [fluorescent, side channel, single point]"
10,CN1CCS/C1=C\C=C1/SC(=S)N(CC(=O)O)C1=O,"inconclusive: 12.6 µM [fluorescent, side channel, partial curve]"
11,COCCn1c(=O)[nH]c2cc(C(=O)OC)ccc2c1=O,"inconclusive: 1.41 µM [fluorescent, side channel, full curve]"
12,OCCC1CN(Cc2ccon2)CCN1Cc1ccc(F)c(F)c1 (centres undefined),"inconclusive: 14.1 µM [inhibitor, single point]"
13,O=C1c2ccccc2C(=O)c2c(NCCCN(CCO)CCO)cccc21,inactive
14,CCOc1ncc(S(=O)(=O)N2CCN(CC)CC2)cc1C(=O)O,"inconclusive: 14.1 µM [fluorescent, side channel, single point]"
15,COc1ccc(-c2csc(C3=C(O)CN(C(C)C)C3=N)n2)cc1OC,inactive
16,Cc1cc(C)cc(N(CC(=O)Nc2ccc(C(F)(F)F)cc2)S(=O)(=O)c2c(C)[nH]c(=O)[nH]c2=O)c1,inactive
17,CCOC(=O)C1=CN(CC2CCCO2)C=C(C(=O)OCC)C1c1ccccc1C(F)(F)F (centres undefined),"inconclusive: 2.82 µM [inhibitor, full curve]"
18,COCCNC(=O)c1ccc2c(c1)nc(C)n2-c1cccc(Cl)c1,"inconclusive: 35.5 µM [fluorescent, side channel, single point]"
19,CCN(CC)c1ccc2c(c1)OC(N)=C(C#N)C2c1cccnc1 (centres undefined),"inconclusive: 35.5 µM [fluorescent, side channel, single point]"
20,CCN(CC)CCNc1ncnc2c1sc1nc(N3CCOCC3)c3c(c12)CCCC3,"inconclusive: 6.31 µM [quencher, side channel, partial curve]"
21,CCOC(=O)C1CCCN(c2nc3ccccc3nc2C(C#N)C(=O)OC(C)COC)C1 (centres undefined),"inconclusive: 11.2 µM [quencher, side channel, partial curve]"
22,Oc1ccc(Br)cc1/C=N/Nc1ncc(-c2ccccc2)cn1,"inconclusive: 100 µM [quencher, side channel, partial curve]"
23,COc1cc(NS(=O)(=O)c2ccc(NC(=O)CCC(=O)O)cc2)nc(OC)n1,"inconclusive: 44.7 µM [inhibitor, single point]"

row,SMILES,Potency
1,COCCCn1c(C)c(C(C)=O)cc(NC(=O)c2ccccc2)c1=O,"inconclusive: 5.01 µM [fluorescent, side channel, partial curve]"
2,O=c1[nH]cccc1-c1nc2ccccc2n1Cc1ccc(Cl)cc1,"inconclusive: 31.6 µM [inhibitor, single point]"
3,O=C(/C=C/c1ccc([N+](=O)[O-])cc1)N1CCN(S(=O)(=O)c2cccs2)CC1,inactive
4,COc1ccc2nc(NC(=O)c3ccc(-n4nc(C)cc4C)cc3)sc2c1,inactive
5,Clc1ccc(-c2noc(/C=C/c3ccccc3)n2)cc1,"inconclusive: 0.891 µM [inhibitor, full curve]"
6,N#CC1=C(N)Nc2ncnn2C1c1ccc(F)cc1 (centres undefined),"inconclusive: 31.6 µM [fluorescent, side channel, partial curve]"
7,COc1ccc(NC(=O)NCc2cccn2C)c(OC)c1,"inconclusive: 6.31 µM [inhibitor, full curve, poor fit]"
8,Cc1ccc(-c2csc(NC(=O)CSC3=NCCS3)n2)cc1,"inconclusive: 31.6 µM [fluorescent, side channel, partial curve]"
9,COc1cccc(CN2CCCC(C(=O)N3CCCCC3)C2)c1 (centres undefined),"inconclusive: 63.1 µM [inhibitor, single point]"
10,COc1ccccc1N1C(=O)C2CC=CC(C)C2C1=O (centres undefined),inactive
11,CC1CCc2nc3ccc(S(=O)(=O)N4CCC(C(=O)NCc5ccccc5Cl)CC4)cc3c(C(=O)O)c2C1 (centres undefined),"inconclusive: 39.8 µM [inhibitor, single point]"
12,Cc1ccc2c(O)c(C)c(=O)[nH]c2n1,"inconclusive: 10 µM [inhibitor, partial curve]"
13,C=CCOC(=O)C1=C[C@@H](c2ccc(Br)cc2)[C@H](CCCO)[C@@H](OCC)O1,"inconclusive: 70.8 µM [inhibitor, single point]"
14,C/C(=N\Nc1cccc2cccnc12)c1ccc(N)cc1,"inconclusive: 50.1 µM [fluorescent, side channel, partial curve]"
15,CN1CCC(N(C)C(=O)Cc2ccccc2[N+](=O)[O-])CC1,"inconclusive: 8.91 µM [inhibitor, single point]"
16,CC(=O)N1CCc2c(sc(NC(=O)c3ccc([N+](=O)[O-])o3)c2C#N)C1,"inconclusive: 12.6 µM [fluorescent, side channel, full curve, poor fit]"
17,Oc1cccc(Nc2nc(O)c(/C=C3\C=Nc4ccccc43)s2)c1,"inconclusive: 44.7 µM [fluorescent, side channel, partial curve]"
18,O=C(CC1SC(=NCCc2ccccc2)N(/N=C/c2cccs2)C1=O)Nc1ccc(Cl)cc1 (centres undefined),inactive
19,O=C(O)c1c(Cl)c(Cl)c(Cl)c(Cl)c1C(=O)N1CCCCCC1,inactive
20,CN(C)c1ccc(/C=C/C(=O)c2cccnc2)cc1,"inconclusive: 44.7 µM [fluorescent, side channel, partial curve]"
21,Cc1ccc(S(=O)(=O)N2CCN(CC(=O)N/N=C\c3ccncc3)CC2)cc1,inactive
22,Cc1cc(Nc2ncc(Cl)cc2Cl)n(-c2ccccc2)n1,"inconclusive: 25.1 µM [quencher, side channel, partial curve]"
23,CN(C)c1ccc2c3c(cccc13)C(=O)N(c1ccccc1)C2=O,"inconclusive: 35.5 µM [fluorescent, side channel, partial curve]"
